Each structure is given as a SMILES string. The list is a part of this screen's results and no random one: it gathers tests that were run many times, whatever their T/C, doses with no T/C, and many T/C values between a quarter and a half above the control. Further doses and runs are listed elsewhere. T/C is the treated group as % of the vehicle group. Schedules are NCI's codes, read here as Q, the interval in days (D) or hours (H), X, the number of doses. Some entries hold several experiments; their values stand side by side, smallest first. Some T/C values are negative: the treated tumours shrank. Some T/C values are followed by the survivors on the day toxicity was checked, most often the fifth; without a count, all were alive then. Some doses have a count of surviving animals in place of a T/C: the source holds a T/C of zero for them, seemingly a mark for toxic or unscored doses. Counts of survivors are from the toxicity check (mostly the fifth day) where no day follows; animals may have died later.

The assay has as its system MX-1 breast xenograft, nude mice, tumor weight T/C. The assay is described as follows: NCI In Vivo Anticancer Drug Screen. Data for tumor model Human Mammary Carcinoma MX-1 Xenograft (intrarenal inoculation) in NU/NU Swiss (nude) mice. Conditions: T/C endpoint: mean tumor weight change, higher T/C = larger tumour; for T/C: evaluated on day 11. In short, it runs like this: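 Antitumour effect measured in vivo against vehicle controls, expressed as T/C.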
Background: Xenograft models place foreign cells or tissue in a host animal.

[1] abbreviates: dose: 6.0 mg/kg/injection, schedule: Q04DX003 (sc), vehicle: saline with Tween-80.
[2] abbreviates: dose: 300.0 mg/kg/injection, schedule: Q04DX003 (sc), vehicle: Klucel (hydroxypropylcellulose) (HPC).
Setting [3] is: dose: 600.0 mg/kg/injection, schedule: Q04DX003 (sc), vehicle: Klucel (hydroxypropylcellulose) (HPC).
Setting [4] is: dose: 1200.0 mg/kg/injection, schedule: Q04DX003 (sc), vehicle: Klucel (hydroxypropylcellulose) (HPC).
Setting [5] is: dose: 2400.0 mg/kg/injection, schedule: Q04DX003 (sc), vehicle: Klucel (hydroxypropylcellulose) (HPC).
Where [6] appears, read: dose: 1200.0 mg/kg/injection, schedule: Q04DX003 (sc), vehicle: saline with Tween-80.
[7] abbreviates: dose: 25.0 mg/kg/injection, schedule: Q01DX010 (sc), vehicle: saline.
[8] abbreviates: dose: 600.0 mg/kg/injection, schedule: Q04DX003 (sc), vehicle: saline with Tween-80.

`[N-]=[N+]=C1N=CN=C1c1ncn[nH]1`: the survivor count is, setting by setting: (dose: 50.0 mg/kg/injection, schedule: Q01DX010 (sc), vehicle: Klucel (hydroxypropylcellulose) (HPC)) 1 of 2 on day 11; (dose: 100.0 mg/kg/injection, schedule: Q01DX010 (sc), vehicle: Klucel (hydroxypropylcellulose) (HPC)) 0 of 3 on day 11.
With `CN(C)CC(Cl)CCl` (stereo not given), for the setting “dose: 600.0 mg/kg/injection, schedule: Q04DX003 (sc), vehicle: saline”, the survivor count is listed as 0 of 6 on day 11.
On to `O=C1N[C@@H]([C@H]2CC[C@H](Cl)CN2)C(=O)N[C@H]1[C@H]1CC[C@H](Cl)CN1`, for which the survivor count (dose: 10.0 mg/kg/injection, schedule: Q01DX010 (sc), vehicle: water) is given as 0 of 3 on day 11.
For the compound `COC(C(=O)C(O)C(C)O)C1Cc2cc3cc(OC4CC(OC(C)=O)C(OC5CC(O)C(OC)C(C)O5)C(C)O4)cc(O)c3c(O)c2C(=O)C1OC1CC(OC2CC(OC3CC(C)(O)C(OC(=O)C(C)C)C(C)O3)C(O)C(C)O2)C(O)C(C)O1` (stereo not given), the T/C runs as follows: (dose: 3.0 mg/kg/injection, schedule: Q04DX003 (sc), vehicle: saline with Tween-80) -91, -71, -54, 12 % of control; under setting [1], -93 [4 of 6 alive on day 11] and -90 % of control [4 of 6 alive on day 11]. Moreover, the survivor count is, setting by setting: under setting [1], 0 of 6 on day 11 and 2 of 6 on day 11; (dose: 12.0 mg/kg/injection, schedule: Q04DX003 (sc), vehicle: saline with Tween-80) 0 of 6 on day 11; (dose: 24.0 mg/kg/injection, schedule: Q04DX003 (sc), vehicle: saline with Tween-80) 0 of 6 on day 11.
For the compound `Cc1cc(N(CCOS(C)(=O)=O)CCOS(C)(=O)=O)ccc1C=Nc1ccc(-c2nc(Cc3ccccc3)sc2C)cc1`, the survivor count (dose: 400.0 mg/kg/injection, schedule: Q01DX010 (sc), vehicle: Klucel (hydroxypropylcellulose) (HPC)) is recorded as 1 of 3 on day 11.
On to `CCC1OCC(C(Cl)CCl)O1` (stereo not given), for which the T/C reads like this: under setting [2], 39, 57, 74, 76, 110, 137 % of control; under setting [3], 33, 34, 93, 98, 108, 122 % of control; under setting [4], 6 [4 of 6 alive on day 11], 15, 40, 46 [5 of 6 alive on day 11], 74 % of control; under setting [5], 13 [5 of 6 alive on day 11], 26, 45 % of control. The survivor count reads like this: under setting [4], 2 of 6 on day 11; under setting [5], 0 of 6 on day 11 and 3 of 6 on day 11.
Regarding `Nc1ncnc2c(C3OC(CO)C(O)C3O)[nH]nc12` (stereo not given), the survivor count under setting [2] was 0 of 6 on day 11 and 3 of 6 on day 11; the survivor count under setting [3] is listed as 0 of 6 on day 11; the survivor count (dose: 600.0 mg/kg/injection, schedule: Q04DX003 (sc), vehicle: suspension in saline) was 0 of 6 on day 11.
Take `CC1=C(/C=C/C(C)=C/C=C/C(C)=C/C(=O)O)C(C)(C)CCC1`: the survivor count (dose: 200.0 mg/kg/injection, schedule: Q01DX010 (sc), vehicle: saline with Tween-80) was 0 of 3 on day 11.
For the compound `COc1cc2c3c(cccc3c1)C(=O)N(CCN(C)C)C2=O`, the T/C (dose: 150.0 mg/kg/injection, schedule: Q04DX003 (sc), vehicle: saline with Tween-80) was 139 % of control. Under setting [6], the survivor count is given as 2 of 6 on day 11.
On to `N=[N+]=CC(=O)OCC(N)C(=O)O` (stereo not given), for which, under setting [7], the survivor count is 0 of 3 on day 11.
Regarding `O=C(O)C(CSC(c1ccccc1)(c1ccccc1)c1ccccc1)N=Cc1cccs1` (stereo not given), the T/C (dose: 100.0 mg/kg/injection, schedule: Q04DX003 (sc), vehicle: suspension in saline) was 144 % of control. Besides, the survivor count (dose: 800.0 mg/kg/injection, schedule: Q04DX003 (sc), vehicle: suspension in saline) is 2 of 6 on day 11.
`COC1=C(C)C(=O)C2=C(C1=O)C1C3CC4=C(C(=O)C(OC)=C(C)C4=O)C(CNC(=O)C(C)=O)N3C(C#N)C(C2)N1C` (stereo not given): the T/C (dose: 2.0 mg/kg/injection, schedule: Q04DX003 (sc), vehicle: Klucel (hydroxypropylcellulose) (HPC)) was 135 % of control. Besides, the survivor count (dose: 8.0 mg/kg/injection, schedule: Q04DX003 (sc), vehicle: Klucel (hydroxypropylcellulose) (HPC)) is given as 1 of 6 on day 11.
On to `CCCCn1cnc2c(=S)nc[nH]c21`, for which the survivor count by setting is: (dose: 1200.0 mg/kg/injection, schedule: Q04DX003 (sc), vehicle: suspension in saline) 1 of 6 on day 11; (dose: 1280.0 mg/kg/injection, schedule: Q04DX003 (sc), vehicle: suspension in saline) 3 of 6 on day 11; (dose: 1600.0 mg/kg/injection, schedule: Q04DX003 (sc), vehicle: suspension in saline) 2 of 6 on day 11; (dose: 2000.0 mg/kg/injection, schedule: Q04DX003 (sc), vehicle: suspension in saline) 1 of 6 on day 11; (dose: 2400.0 mg/kg/injection, schedule: Q04DX003 (sc), vehicle: suspension in saline) 2 of 6 on day 11.
For `C=C1C(C)C2C(Cc3ccccc3)NC(=O)C23C(OC(C)=O)C=CC(C)(O)C(=O)C(C)C/C=C/C3C1O` (stereo not given), for the setting “dose: 30.0 mg/kg/injection, schedule: Q04DX003 (sc), vehicle: Klucel (hydroxypropylcellulose) (HPC)”, the survivor count is reported as 1 of 6 on day 11.
Take `CC(=O)NCCCCCCNC(C)=O`: the T/C by setting is: (dose: 400.0 mg/kg/injection, schedule: Q01DX010 (sc), vehicle: saline) 141 % of control; (dose: 800.0 mg/kg/injection, schedule: Q01DX010 (sc), vehicle: saline) 130 % of control.
For the compound `Cc1cc(=O)n2c3c(c4c(cc13)c(CN(C)C)cc(=O)n4C)OC2`, under setting [8], the survivor count is on record as 1 of 6 on day 11.
As for `O=c1s[se]c2ccccc12`, the survivor count is 3 of 6 on day 11 under setting [3] and 2 of 6 on day 11 under setting [4].
As to `CCCCNC(C)[C@]1(O)Cc2c(O)c3c(c(O)c2[C@@H](OC2CC(N)C(O)C(C)O2)C1)C(=O)c1c(OC)cccc1C3=O` (stereo not given in full), the survivor count is 0 of 3 on day 11 and 1 of 3 on day 11 under setting [7]; 0 of 3 on day 11 (dose: 36.0 mg/kg/injection, schedule: Q01DX010 (sc), vehicle: saline).
For the compound `COc1cccc2c1C(=O)c1c(O)c3c(c(O)c1C2=O)C[C@@](O)(C(=O)CO)C[C@@H]3OC1CC(N)C(OC)C(C)O1` (stereo not given in full), the survivor count is 0 of 3 on day 11 (dose: 3.0 mg/kg/injection, schedule: Q01DX010 (sc), vehicle: saline); 0 of 3 on day 11 (dose: 6.0 mg/kg/injection, schedule: Q01DX010 (sc), vehicle: saline); 0 of 3 on day 11 (dose: 12.0 mg/kg/injection, schedule: Q01DX010 (sc), vehicle: saline).
`CC(=O)OCC1OC(OC2=C(CC=C(C)C)C(=O)c3ccccc3C2=O)C(OC(C)=O)C(OC(C)=O)C1OC(C)=O` (stereo not given): the survivor count (dose: 200.0 mg/kg/injection, schedule: Q01DX010 (sc), vehicle: Klucel (hydroxypropylcellulose) (HPC)) was 1 of 3 on day 11.
For the compound `Nc1ccn([C@@H](C=O)O[C@@H](C=O)CO)c(=O)n1`, the survivor count by setting is: (dose: 400.0 mg/kg/injection, schedule: Q01DX010 (sc), vehicle: suspension in saline) 0 of 3 on day 11; (dose: 800.0 mg/kg/injection, schedule: Q01DX010 (sc), vehicle: suspension in saline) 0 of 3 on day 11.
As for `Cc1cc(NCCCN(C)C)c2ccc3c(ccc4c(NCCCN(C)C)cc(C)nc43)c2n1`, the survivor count by setting is: (dose: 37.5 mg/kg/injection, schedule: Q04DX003 (sc), vehicle: saline with Tween-80) 1 of 6 on day 11; (dose: 75.0 mg/kg/injection, schedule: Q04DX003 (sc), vehicle: saline with Tween-80) 0 of 6 on day 11.
For the compound `C1=CCOCOC1`, the survivor count under setting [8] is 0 of 6 on day 11 and the survivor count under setting [6] was 0 of 6 on day 11.

The values are drawn from PubChem BioAssay AID296 (DTP/NCI, 2004).
